From patent publication US20220274945A1, “SUBSTITUTED THIOPHENE CARBOXAMIDES AND DERIVATIVES THEREOF AS MICROBICIDES” (Bayer Aktiengesellschaft, priority 2019, published 2022)
Some results were stated once for a whole list of compounds, not compound by compound.

Each compound was assayed on Botrytis cinerea (assay: Botrytis cinerea in vitro cell test). Conditions: 20 ppm of active ingredient; liquid culture, 5 days incubation.
Assay type: cell-based
Description: • Solvent: DMSO • Culture medium: 14.6 g anhydrous D-glucose (VWR), 7.1 g Mycological Peptone (Oxoid), 1.4 g granulated Yeast Extract (Merck), QSP Iliter • Inoculum: spore suspension
Fungicides were solubilized in DMSO and the solution used to prepare the required range of concentrations. The final concentration of DMSO used in the assay was ≤[…]1%.
A spore suspension of B. cinerea was prepared and diluted to the desired spore density.
Fungicides were evaluated for their ability to inhibit spore germination and mycelium growth in liquid culture assay. The compounds were added in the desired concentration to the culture medium with spores. After 5 days incubation, fungi-toxicity of compounds was determined by spectrometric measurement of mycelium growth. Inhibition of fungal growth was determined by comparing the absorbance values in wells containing the fungicides with the absorbance in control wells without fungicides.

SMILES	efficacy (inhibition of fungal growth) [%]
O=C(NC1(C(=O)O)CC1)c1sc(Br)c(Br)c1F [I.02]	≤ 30
CCOC(=O)C1(NC(=O)c2sc(Cl)c(Cl)c2I)CC1 [I.04]	≤ 30
O=C(NC1(C(=O)O)CC1)c1sc(Cl)c(Cl)c1I [I.05]	≤ 30
CCOC(=O)C1(NC(=O)c2sc(Br)c(Br)c2I)CC1 [I.06]	≤ 30
COC(=O)C1(NC(=O)c2sc(Br)c(Br)c2I)CC1 [I.07]	≤ 30
O=C(NC1(C(=O)O)CC1)c1sc(Br)c(Br)c1I [I.08]	≤ 30
CCOC(=O)C1(NC(=O)c2sc(Br)c(Br)c2Cl)CC1 [I.09]	≤ 30
COC(=O)C1(NC(=O)c2sc(Br)c(Br)c2Cl)CC1 [I.10]	≤ 30
COC(=O)C1(NC(=O)c2sc(Br)c(Br)c2Br)CC1 [I.11]	≤ 30
COC(=O)C1(NC(=O)c2sc(Cl)c(Cl)c2Br)CC1 [I.12]	≤ 30
O=C(NC1(C(=O)O)CC1)c1sc(Br)c(Br)c1Cl [I.13]	≤ 30
O=C(NC1(C(=O)O)CC1)c1sc(Br)c(Br)c1Br [I.14]	≤ 30
COC(=O)C1(NC(=O)c2sc(Br)c(Br)c2F)CC1 [I.16]	≤ 30
CCOC(=O)C1(NC(=O)c2sc(Cl)c(Cl)c2F)CC1 [I.44]	≤ 30
COC(=O)C1(NC(=O)c2sc(Cl)c(Cl)c2F)CC1 [I.45]	≤ 30

The compounds below were run on Pseudomonas syringae pv. tomato (assay: Pseudomonas syringae pv. tomato in vitro cell test). Conditions: 20 ppm of active ingredient; liquid culture, 24 h incubation.
Assay type: cell-based
Description: (§1) • Solvent: DMSO • Culture medium: LB broth medium (Luria Broth Miller) Sigma • Inoculum: bacteria suspension Compounds to be tested were solubilized in DMSO and the solution used to prepare the required range of concentrations. The final concentration of DMSO used in the assay was ≤1%. Inoculum was prepared from a pre-culture of bacteria grown in liquid medium and diluted to the desired optical density (OD). Compounds were evaluated for their ability to inhibit bacteria growth in liquid culture assay. The compounds were added in the desired concentrations to culture medium containing the bacteria suspension. After 24 h of incubation, the efficacy of compounds was determined by spectrometric measurement of bacteria growth. Inhibition was determined by comparing the absorbance values in wells containing the compounds with the absorbance in control wells without compounds.

SMILES	efficacy (inhibition of bacteria growth) [%]
O=C(NC1(C(=O)O)CC1)c1sc(Br)c(Br)c1F [I.02]	≤ 30
CCOC(=O)C1(NC(=O)c2sc(Cl)c(Cl)c2I)CC1 [I.04]	≤ 30
O=C(NC1(C(=O)O)CC1)c1sc(Cl)c(Cl)c1I [I.05]	≤ 30
CCOC(=O)C1(NC(=O)c2sc(Br)c(Br)c2I)CC1 [I.06]	≤ 30
COC(=O)C1(NC(=O)c2sc(Br)c(Br)c2I)CC1 [I.07]	≤ 30
O=C(NC1(C(=O)O)CC1)c1sc(Br)c(Br)c1I [I.08]	≤ 30
CCOC(=O)C1(NC(=O)c2sc(Br)c(Br)c2Cl)CC1 [I.09]	≤ 30
COC(=O)C1(NC(=O)c2sc(Br)c(Br)c2Cl)CC1 [I.10]	≤ 30
COC(=O)C1(NC(=O)c2sc(Br)c(Br)c2Br)CC1 [I.11]	≤ 30
COC(=O)C1(NC(=O)c2sc(Cl)c(Cl)c2Br)CC1 [I.12]	≤ 30
O=C(NC1(C(=O)O)CC1)c1sc(Br)c(Br)c1Cl [I.13]	≤ 30
O=C(NC1(C(=O)O)CC1)c1sc(Br)c(Br)c1Br [I.14]	≤ 30
COC(=O)C1(NC(=O)c2sc(Br)c(Br)c2F)CC1 [I.16]	≤ 30
CCOC(=O)C1(NC(=O)c2sc(Cl)c(Cl)c2F)CC1 [I.44]	≤ 30
COC(=O)C1(NC(=O)c2sc(Cl)c(Cl)c2F)CC1 [I.45]	≤ 30

The compounds below were run on Xanthomonas campestris pv. campestris (assay: Xanthomonas campestris pv. campestris in vitro cell test). Conditions: 20 ppm of active ingredient; liquid culture, 24 h incubation.
Assay type: cell-based
Description: as §1, with “Compounds” for “Compounds to be tested”, “10%.” for “≤1%.”, “active ingredients.” for “compounds.”

SMILES	efficacy (inhibition of bacteria growth) [%]
O=C(NC1(C(=O)O)CC1)c1sc(Br)c(Br)c1F [I.02]	≤ 30
CCOC(=O)C1(NC(=O)c2sc(Cl)c(Cl)c2I)CC1 [I.04]	≤ 30
O=C(NC1(C(=O)O)CC1)c1sc(Cl)c(Cl)c1I [I.05]	≤ 30
CCOC(=O)C1(NC(=O)c2sc(Br)c(Br)c2I)CC1 [I.06]	≤ 30
COC(=O)C1(NC(=O)c2sc(Br)c(Br)c2I)CC1 [I.07]	≤ 30
O=C(NC1(C(=O)O)CC1)c1sc(Br)c(Br)c1I [I.08]	≤ 30
CCOC(=O)C1(NC(=O)c2sc(Br)c(Br)c2Cl)CC1 [I.09]	≤ 30
COC(=O)C1(NC(=O)c2sc(Br)c(Br)c2Cl)CC1 [I.10]	≤ 30
COC(=O)C1(NC(=O)c2sc(Br)c(Br)c2Br)CC1 [I.11]	≤ 30
COC(=O)C1(NC(=O)c2sc(Cl)c(Cl)c2Br)CC1 [I.12]	≤ 30
O=C(NC1(C(=O)O)CC1)c1sc(Br)c(Br)c1Cl [I.13]	≤ 30
O=C(NC1(C(=O)O)CC1)c1sc(Br)c(Br)c1Br [I.14]	≤ 30
COC(=O)C1(NC(=O)c2sc(Br)c(Br)c2F)CC1 [I.16]	≤ 30
CCOC(=O)C1(NC(=O)c2sc(Cl)c(Cl)c2F)CC1 [I.44]	≤ 30
COC(=O)C1(NC(=O)c2sc(Cl)c(Cl)c2F)CC1 [I.45]	≤ 30

The compounds below were run on salicylate responsive promoter sequence of the PR1 (pathogenesis-related protein I) gene (AT2G14610) (assay: Induction of defense gene expression in Arabidopsis thaliana (PR1 promoter-GFP reporter plants)). Conditions: 75 ppm, sprayed; 3rd day after spraying; mock treated leaves set as 1.00.
Assay type: in vivo
Description: Arabidopsis thaliana reporter plants containing the coding sequence of a green fluorescent protein (GFP) linked to the salicylate responsive promoter sequence of the PR1 (pathogenesis-related protein I) gene (AT2G14610) were grown for five days and then sprayed with compounds. On the 3rd day after spraying, plant fluorescence was assessed with a MacroFluo instrument from Leica Microsystems (Wetzlar, Germany). Fluorescences were quantified with the Meta-Morph Microscopy Automation & Image Analysis Software (Molecular Devices, Sunnyvale, Calif., United States).
Background fluorescence in mock treated leaves was set as 1.00.

SMILES	relative fluorescence value
O=C(NC1(C(=O)O)CC1)c1sc(Br)c(Br)c1F [I.02]	above 2
CCOC(=O)C1(NC(=O)c2sc(Cl)c(Cl)c2Br)CC1 [I.03, Ethyl 1-{[(3-bromo-4,5-dichloro-2-thienyl)carbonyl]amino}cyclopropanecarboxylate]	above 2
O=C(NC1(C(=O)O)CC1)c1sc(Cl)c(Cl)c1Br [I.15, 1-{[(3-bromo-4,5-dichloro-2-thienyl)carbonyl]amino}cyclopropanecarboxylic Acid]	above 2
O=C(NC1(C(=O)OCc2ccccc2)CC1)c1sc(Br)c(Br)c1F [I.17]	above 2
O=C(NC1(C(=O)OC2CCCC2)CC1)c1sc(Br)c(Br)c1F [I.18]	above 2
CC(C)COC(=O)C1(NC(=O)c2sc(Br)c(Br)c2F)CC1 [I.20]	above 2
C=CCOC(=O)C1(NC(=O)c2sc(Br)c(Br)c2F)CC1 [I.24]	above 2
CC(C)COC(=O)C1(NC(=O)c2sc(Cl)c(Cl)c2Br)CC1 [I.28]	above 2
CCCCOC(=O)C1(NC(=O)c2sc(Cl)c(Cl)c2Br)CC1 [I.29]	above 2
CCCOC(=O)C1(NC(=O)c2sc(Cl)c(Cl)c2Br)CC1 [I.31]	above 2
CC(C)OC(=O)C1(NC(=O)c2sc(Cl)c(Cl)c2Br)CC1 [I.32]	above 2
C#CCOC(=O)C1(NC(=O)c2sc(Cl)c(Cl)c2Br)CC1 [I.33]	above 2
C=CCOC(=O)C1(NC(=O)c2sc(Cl)c(Cl)c2Br)CC1 [I.34]	above 2
O=C(NC1(C(=O)OC2CCC2)CC1)c1sc(Br)c(Br)c1F [I.36]	above 2
CCCOC(=O)C1(NC(=O)c2sc(Br)c(Br)c2F)CC1 [I.37]	above 2
O=C(NC1(C(=O)OC2CCC2)CC1)c1sc(Br)c(Br)c1Cl [I.42]	above 2
COC(=O)C1(NC(=O)c2sc(Cl)c(Cl)c2F)CC1 [I.45]	above 2

Same assay, conditions: 300 ppm, sprayed; 3rd day after spraying; mock treated leaves set as 1.00

SMILES	relative fluorescence value
CCOC(=O)C1(NC(=O)c2sc(Br)c(Br)c2F)CC1 [I.01, ethyl 1-{[(4,5-dibromo-3-fluoro-2-thienyl)carbonyl]amino}cyclopropanecarboxylate]	above 2
O=C(NC1(C(=O)O)CC1)c1sc(Br)c(Br)c1F [I.02]	above 2
CCOC(=O)C1(NC(=O)c2sc(Cl)c(Cl)c2Br)CC1 [I.03, Ethyl 1-{[(3-bromo-4,5-dichloro-2-thienyl)carbonyl]amino}cyclopropanecarboxylate]	above 2
CCOC(=O)C1(NC(=O)c2sc(Cl)c(Cl)c2I)CC1 [I.04]	above 2
O=C(NC1(C(=O)O)CC1)c1sc(Cl)c(Cl)c1Br [I.15, 1-{[(3-bromo-4,5-dichloro-2-thienyl)carbonyl]amino}cyclopropanecarboxylic Acid]	above 2
O=C(NC1(C(=O)OCc2ccccc2)CC1)c1sc(Br)c(Br)c1F [I.17]	above 2
O=C(NC1(C(=O)OC2CCCC2)CC1)c1sc(Br)c(Br)c1F [I.18]	above 2
CC(C)COC(=O)C1(NC(=O)c2sc(Br)c(Br)c2F)CC1 [I.20]	above 2
CCCCOC(=O)C1(NC(=O)c2sc(Br)c(Br)c2F)CC1 [I.21]	above 2
CC(C)OC(=O)C1(NC(=O)c2sc(Br)c(Br)c2F)CC1 [I.22]	above 2
C=CCOC(=O)C1(NC(=O)c2sc(Br)c(Br)c2F)CC1 [I.24]	above 2
O=C(NC1(C(=O)OCc2ccccc2)CC1)c1sc(Cl)c(Cl)c1Br [I.25]	above 2
O=C(NC1(C(=O)OC2CCCC2)CC1)c1sc(Cl)c(Cl)c1Br [I.26]	above 2
CC(C)COC(=O)C1(NC(=O)c2sc(Cl)c(Cl)c2Br)CC1 [I.28]	above 2
CCCCOC(=O)C1(NC(=O)c2sc(Cl)c(Cl)c2Br)CC1 [I.29]	above 2
O=C(NC1(C(=O)OC2CCC2)CC1)c1sc(Cl)c(Cl)c1Br [I.30]	above 2
CCCOC(=O)C1(NC(=O)c2sc(Cl)c(Cl)c2Br)CC1 [I.31]	above 2
CC(C)OC(=O)C1(NC(=O)c2sc(Cl)c(Cl)c2Br)CC1 [I.32]	above 2
C#CCOC(=O)C1(NC(=O)c2sc(Cl)c(Cl)c2Br)CC1 [I.33]	above 2
C=CCOC(=O)C1(NC(=O)c2sc(Cl)c(Cl)c2Br)CC1 [I.34]	above 2
O=C(NC1(C(=O)OC2CCC2)CC1)c1sc(Br)c(Br)c1F [I.36]	above 2
CCCOC(=O)C1(NC(=O)c2sc(Br)c(Br)c2F)CC1 [I.37]	above 2
O=C(NC1(C(=O)OC2CCC2)CC1)c1sc(Br)c(Br)c1Br [I.38]	above 2
CCCOC(=O)C1(NC(=O)c2sc(Br)c(Br)c2Br)CC1 [I.39]	above 2
CCCOC(=O)C1(NC(=O)c2sc(Br)c(Br)c2Cl)CC1 [I.40]	above 2
CCCOC(=O)C1(NC(=O)c2sc(Br)c(Br)c2I)CC1 [I.41]	above 2
O=C(NC1(C(=O)OC2CCC2)CC1)c1sc(Br)c(Br)c1Cl [I.42]	above 2
CCOC(=O)C1(NC(=O)c2sc(Cl)c(Cl)c2F)CC1 [I.44]	above 2
COC(=O)C1(NC(=O)c2sc(Cl)c(Cl)c2F)CC1 [I.45]	above 2
